Assay results published in PMC5928155, “Sak4 of Phage HK620 Is a RecA Remote Homolog With Single-Strand Annealing Activity Stimulated by Its Cognate SSB Protein” (Frontiers in Microbiology, 2018).
These are yes or no findings as the source states them, for the method shown. Some entries that bind do so weakly or less than the wild type.

Key:
[1] = biological target: SSB_(HK620), wild-type HkaK protein from phage HK620 (phage HK620) (UniProt Q9AZ30); assay: SEC; as the gel filtration assay, with ATP added to the reaction and column buffer; data not shown; no ssDNA; both purified
[2] = biological target: SSB_(HK620), wild-type HkaK protein from phage HK620 (phage HK620) (UniProt Q9AZ30); assay: cross-linking; 1 mM Sulfo-EGS, 20 min at 20°C; 2 µg of each protein alone or together in 20 mM Hepes pH 7.5, 150 mM NaCl, 50% glycerol, with or without 1 mM ATP; SDS-PAGE and Coomassie; no ssDNA; both purified

B1: SSB_(HK620), wild-type HkaK protein from phage HK620 (natural protein, UniProt Q9AZ30 1-195, looked up)
chain: MSNVIFTYNEEAALTAGQGGFINETGAHIITITEAELKQSEKGAKFIEFSGESDDGRKIQYLSVCVQKNDGTENKFGANVVHAMMGCAGIGQLTQHMVSASKFVAPEFHGKKIGLVLQKVLTTNKKTGADSYQMEIRIPFIAQTGQTLKEKAVGKQPETIANMVASLKDKDNRSKNVSQNHADDYGYSQNDYPPF
notes: HkaK (first annotated Abc1) of phage HK620, a distant SSB homolog (Pfam DUF669); produced untagged; monomer 21.3 kDa; Untagged; also called Abc1_(HK620); HkaK/Abc1_(HK620); source: E. coli ER2566 with pSMG279, purified (PEI, ammonium sulfate, HiTrap Heparin)
B1 was tested, and the binding [1] was “binds” and the binding [2] was “binds”.
